From PMC4353692
These are yes or no findings as the source states them, for the method shown. Binding can be weak; no strength is given.

Molecular target: Manduca sexta V-ATPase subunit a (Manduca sexta (endogenous in midgut))
Experiment: cryo-EM structure; M. sexta V-ATPase holoenzyme purified from tissue, in C12E10; 9.4 Å reconstruction (gold standard FSC 0.143); homology models of the subunits flexibly fitted by MDFF; side chains not resolved; both purified

binding: binds
B1: Manduca sexta V-ATPase subunit G (protein, UniProt Q25532 1-117)
chain: MASQTHGIQQLLAAEKRAAEKVSEARKRKAKRLKQAKEEAQDEVEKYRQERERQFKEFEAKHMGTREGVAAKIDAETRIKIDEMNKMVQTQKEAVIKDVLNLVYDIKPELHINYRVV
